Laboratory results from the supplement of paper PMC10849652.
The list shows a part of the results.

Protein sequences, listed by entry. Tags and fused reporters are not part of them. Lines headed by an entry give the natural chain unless they say otherwise; changes in a name come on top.
UniProt Q96QU6: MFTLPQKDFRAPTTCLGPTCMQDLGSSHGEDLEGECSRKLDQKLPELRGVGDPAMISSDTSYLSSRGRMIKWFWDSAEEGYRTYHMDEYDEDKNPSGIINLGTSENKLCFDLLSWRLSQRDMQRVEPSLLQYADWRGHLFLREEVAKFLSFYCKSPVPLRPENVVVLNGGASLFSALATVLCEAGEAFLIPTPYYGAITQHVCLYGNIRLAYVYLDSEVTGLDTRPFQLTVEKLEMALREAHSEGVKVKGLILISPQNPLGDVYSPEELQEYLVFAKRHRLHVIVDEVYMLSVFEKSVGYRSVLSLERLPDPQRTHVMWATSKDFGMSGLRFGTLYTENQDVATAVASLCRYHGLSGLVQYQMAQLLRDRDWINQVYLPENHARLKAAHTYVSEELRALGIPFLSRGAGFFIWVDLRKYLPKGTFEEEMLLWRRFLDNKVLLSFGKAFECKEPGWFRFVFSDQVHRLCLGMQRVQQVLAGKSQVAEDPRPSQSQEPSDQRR
UniProt P00519, whole entry, looked up: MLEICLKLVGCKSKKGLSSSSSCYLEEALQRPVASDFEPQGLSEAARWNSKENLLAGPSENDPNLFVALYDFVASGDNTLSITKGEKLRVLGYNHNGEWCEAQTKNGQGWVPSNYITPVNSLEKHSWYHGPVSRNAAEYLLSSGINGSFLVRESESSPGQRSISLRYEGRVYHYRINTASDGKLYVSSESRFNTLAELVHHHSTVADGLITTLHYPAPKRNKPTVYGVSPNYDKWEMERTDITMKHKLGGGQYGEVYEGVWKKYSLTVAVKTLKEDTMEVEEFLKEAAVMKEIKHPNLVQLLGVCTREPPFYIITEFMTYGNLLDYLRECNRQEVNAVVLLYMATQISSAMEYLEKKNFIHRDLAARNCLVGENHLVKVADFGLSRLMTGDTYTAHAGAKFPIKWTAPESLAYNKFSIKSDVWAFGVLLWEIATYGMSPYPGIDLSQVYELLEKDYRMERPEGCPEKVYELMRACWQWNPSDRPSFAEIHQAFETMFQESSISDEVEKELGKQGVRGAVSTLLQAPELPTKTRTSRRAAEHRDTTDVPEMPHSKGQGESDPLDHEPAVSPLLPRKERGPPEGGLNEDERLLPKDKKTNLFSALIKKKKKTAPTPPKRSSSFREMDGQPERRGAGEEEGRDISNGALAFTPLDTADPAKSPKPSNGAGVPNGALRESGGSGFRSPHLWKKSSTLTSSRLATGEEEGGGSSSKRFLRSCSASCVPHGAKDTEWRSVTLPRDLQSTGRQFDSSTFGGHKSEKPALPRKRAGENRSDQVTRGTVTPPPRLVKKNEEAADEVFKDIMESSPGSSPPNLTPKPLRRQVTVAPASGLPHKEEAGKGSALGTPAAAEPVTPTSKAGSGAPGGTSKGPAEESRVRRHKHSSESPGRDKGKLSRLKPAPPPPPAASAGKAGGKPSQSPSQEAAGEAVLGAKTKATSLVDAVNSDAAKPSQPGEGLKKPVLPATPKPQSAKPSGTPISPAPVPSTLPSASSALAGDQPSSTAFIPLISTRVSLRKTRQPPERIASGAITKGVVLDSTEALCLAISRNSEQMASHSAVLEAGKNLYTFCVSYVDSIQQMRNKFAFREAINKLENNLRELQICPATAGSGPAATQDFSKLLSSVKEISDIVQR
UniProt Q9UG63: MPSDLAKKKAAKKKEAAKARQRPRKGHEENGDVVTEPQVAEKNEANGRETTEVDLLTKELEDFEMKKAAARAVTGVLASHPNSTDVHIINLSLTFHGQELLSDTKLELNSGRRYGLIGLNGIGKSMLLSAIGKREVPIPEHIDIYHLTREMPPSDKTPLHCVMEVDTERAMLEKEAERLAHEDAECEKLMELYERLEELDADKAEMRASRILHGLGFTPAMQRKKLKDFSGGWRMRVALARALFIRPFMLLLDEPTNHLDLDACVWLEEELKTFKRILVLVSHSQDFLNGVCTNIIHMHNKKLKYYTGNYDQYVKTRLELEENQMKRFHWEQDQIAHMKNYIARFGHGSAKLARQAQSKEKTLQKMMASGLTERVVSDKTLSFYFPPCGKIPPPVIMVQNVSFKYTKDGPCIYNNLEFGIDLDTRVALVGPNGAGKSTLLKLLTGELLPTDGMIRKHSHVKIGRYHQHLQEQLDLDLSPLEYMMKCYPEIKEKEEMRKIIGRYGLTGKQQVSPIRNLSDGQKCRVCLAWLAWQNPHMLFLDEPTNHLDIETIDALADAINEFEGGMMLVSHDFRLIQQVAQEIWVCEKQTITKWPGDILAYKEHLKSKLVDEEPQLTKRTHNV
UniProt P49748: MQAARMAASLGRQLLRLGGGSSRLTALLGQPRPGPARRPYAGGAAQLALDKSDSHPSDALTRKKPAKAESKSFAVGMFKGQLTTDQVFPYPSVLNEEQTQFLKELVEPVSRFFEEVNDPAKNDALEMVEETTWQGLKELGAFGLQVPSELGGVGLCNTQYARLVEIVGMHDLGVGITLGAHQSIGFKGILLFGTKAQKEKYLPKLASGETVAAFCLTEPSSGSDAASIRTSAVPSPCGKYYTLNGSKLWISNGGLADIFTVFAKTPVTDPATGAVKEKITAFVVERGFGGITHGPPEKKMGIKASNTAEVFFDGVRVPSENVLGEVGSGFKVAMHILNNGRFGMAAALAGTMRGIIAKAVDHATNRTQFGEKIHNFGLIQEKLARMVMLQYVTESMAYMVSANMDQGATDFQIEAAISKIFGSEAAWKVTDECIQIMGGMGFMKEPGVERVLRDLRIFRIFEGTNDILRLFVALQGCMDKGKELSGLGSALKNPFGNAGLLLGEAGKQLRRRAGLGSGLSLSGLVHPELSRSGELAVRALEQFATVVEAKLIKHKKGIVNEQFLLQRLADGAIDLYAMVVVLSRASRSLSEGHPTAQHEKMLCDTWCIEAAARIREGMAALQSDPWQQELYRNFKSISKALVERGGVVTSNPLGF
UniProt O15439: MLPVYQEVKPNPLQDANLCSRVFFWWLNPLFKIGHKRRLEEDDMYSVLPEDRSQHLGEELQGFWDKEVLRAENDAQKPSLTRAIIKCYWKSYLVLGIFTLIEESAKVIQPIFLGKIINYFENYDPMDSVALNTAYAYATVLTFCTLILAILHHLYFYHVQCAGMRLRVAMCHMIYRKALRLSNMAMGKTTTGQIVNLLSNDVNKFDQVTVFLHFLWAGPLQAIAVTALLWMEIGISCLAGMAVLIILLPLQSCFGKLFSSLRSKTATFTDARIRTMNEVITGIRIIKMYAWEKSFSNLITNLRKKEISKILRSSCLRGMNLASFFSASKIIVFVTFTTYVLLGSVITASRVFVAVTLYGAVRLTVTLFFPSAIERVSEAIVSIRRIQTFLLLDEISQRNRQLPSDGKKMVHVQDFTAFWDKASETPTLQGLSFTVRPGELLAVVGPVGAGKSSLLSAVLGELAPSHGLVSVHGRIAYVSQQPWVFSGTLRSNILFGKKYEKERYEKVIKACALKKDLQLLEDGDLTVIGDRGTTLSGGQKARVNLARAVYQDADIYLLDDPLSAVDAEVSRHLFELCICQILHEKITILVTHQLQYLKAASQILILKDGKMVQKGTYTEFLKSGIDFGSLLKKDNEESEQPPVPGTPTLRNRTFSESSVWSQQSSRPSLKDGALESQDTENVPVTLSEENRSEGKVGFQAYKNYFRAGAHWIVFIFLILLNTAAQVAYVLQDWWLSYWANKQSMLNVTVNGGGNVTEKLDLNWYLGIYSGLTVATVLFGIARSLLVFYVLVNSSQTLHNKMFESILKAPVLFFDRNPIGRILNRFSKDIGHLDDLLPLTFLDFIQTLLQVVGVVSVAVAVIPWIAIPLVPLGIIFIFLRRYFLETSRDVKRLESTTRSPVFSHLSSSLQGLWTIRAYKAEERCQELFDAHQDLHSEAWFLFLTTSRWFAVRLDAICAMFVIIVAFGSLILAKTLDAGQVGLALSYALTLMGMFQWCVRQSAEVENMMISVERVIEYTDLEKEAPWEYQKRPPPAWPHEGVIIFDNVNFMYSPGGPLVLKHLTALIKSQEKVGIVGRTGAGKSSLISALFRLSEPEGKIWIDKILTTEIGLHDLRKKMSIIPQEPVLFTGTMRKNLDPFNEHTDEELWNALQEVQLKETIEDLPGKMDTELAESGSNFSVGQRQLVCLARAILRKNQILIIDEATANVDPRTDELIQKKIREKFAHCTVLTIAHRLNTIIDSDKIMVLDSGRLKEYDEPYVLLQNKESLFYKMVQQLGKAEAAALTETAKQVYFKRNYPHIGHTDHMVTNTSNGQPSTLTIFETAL
UniProt P28288: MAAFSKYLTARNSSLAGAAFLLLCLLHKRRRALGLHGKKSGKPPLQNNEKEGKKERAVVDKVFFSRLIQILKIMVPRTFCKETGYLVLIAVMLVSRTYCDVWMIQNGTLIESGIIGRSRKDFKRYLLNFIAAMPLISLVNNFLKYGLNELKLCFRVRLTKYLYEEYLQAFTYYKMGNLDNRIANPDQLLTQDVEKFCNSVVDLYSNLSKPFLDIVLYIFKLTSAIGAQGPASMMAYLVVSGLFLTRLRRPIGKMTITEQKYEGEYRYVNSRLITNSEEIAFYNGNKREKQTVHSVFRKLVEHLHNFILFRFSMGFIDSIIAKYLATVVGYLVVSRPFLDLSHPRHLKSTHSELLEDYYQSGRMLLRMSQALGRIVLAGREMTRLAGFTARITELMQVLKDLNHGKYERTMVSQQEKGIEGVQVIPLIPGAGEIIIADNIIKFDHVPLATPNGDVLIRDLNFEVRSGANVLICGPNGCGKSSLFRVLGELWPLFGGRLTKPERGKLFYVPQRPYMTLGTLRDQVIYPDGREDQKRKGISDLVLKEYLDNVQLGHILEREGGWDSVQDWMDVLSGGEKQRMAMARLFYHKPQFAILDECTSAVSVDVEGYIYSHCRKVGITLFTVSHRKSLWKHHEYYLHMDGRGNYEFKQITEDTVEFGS
UniProt Q9UKV3: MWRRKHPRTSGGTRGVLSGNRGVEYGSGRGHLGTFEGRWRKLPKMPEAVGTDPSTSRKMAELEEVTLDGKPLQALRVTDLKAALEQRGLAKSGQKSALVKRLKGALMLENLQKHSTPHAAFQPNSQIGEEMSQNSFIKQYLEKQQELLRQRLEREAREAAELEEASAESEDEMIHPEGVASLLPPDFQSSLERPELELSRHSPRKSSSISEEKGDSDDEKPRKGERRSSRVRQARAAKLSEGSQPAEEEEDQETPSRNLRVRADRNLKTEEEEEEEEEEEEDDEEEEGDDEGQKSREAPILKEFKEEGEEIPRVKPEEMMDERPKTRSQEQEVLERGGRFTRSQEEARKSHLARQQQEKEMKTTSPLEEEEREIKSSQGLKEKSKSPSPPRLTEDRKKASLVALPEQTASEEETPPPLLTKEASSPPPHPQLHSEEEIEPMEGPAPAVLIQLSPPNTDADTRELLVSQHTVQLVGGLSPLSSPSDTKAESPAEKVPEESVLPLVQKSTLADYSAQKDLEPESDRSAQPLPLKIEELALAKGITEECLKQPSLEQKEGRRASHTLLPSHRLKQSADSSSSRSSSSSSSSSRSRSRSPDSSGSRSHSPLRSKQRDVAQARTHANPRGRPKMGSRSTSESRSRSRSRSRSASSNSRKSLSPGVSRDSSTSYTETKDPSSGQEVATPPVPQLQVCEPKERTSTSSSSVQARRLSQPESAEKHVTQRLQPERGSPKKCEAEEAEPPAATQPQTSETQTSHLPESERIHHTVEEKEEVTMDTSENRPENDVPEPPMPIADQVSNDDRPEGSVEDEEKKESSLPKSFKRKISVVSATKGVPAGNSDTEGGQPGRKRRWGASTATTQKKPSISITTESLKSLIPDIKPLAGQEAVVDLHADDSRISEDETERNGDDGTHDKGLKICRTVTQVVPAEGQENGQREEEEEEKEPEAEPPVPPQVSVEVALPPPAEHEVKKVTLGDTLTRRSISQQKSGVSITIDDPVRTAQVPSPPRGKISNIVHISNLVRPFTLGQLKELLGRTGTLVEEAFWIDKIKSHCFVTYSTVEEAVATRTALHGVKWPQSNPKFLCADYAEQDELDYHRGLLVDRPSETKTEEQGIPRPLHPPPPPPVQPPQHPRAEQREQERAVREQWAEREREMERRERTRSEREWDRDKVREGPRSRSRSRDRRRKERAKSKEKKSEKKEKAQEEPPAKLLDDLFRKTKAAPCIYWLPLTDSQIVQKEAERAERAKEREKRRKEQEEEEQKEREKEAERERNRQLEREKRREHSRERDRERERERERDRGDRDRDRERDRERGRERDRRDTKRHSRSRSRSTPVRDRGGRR
UniProt Q6PD74: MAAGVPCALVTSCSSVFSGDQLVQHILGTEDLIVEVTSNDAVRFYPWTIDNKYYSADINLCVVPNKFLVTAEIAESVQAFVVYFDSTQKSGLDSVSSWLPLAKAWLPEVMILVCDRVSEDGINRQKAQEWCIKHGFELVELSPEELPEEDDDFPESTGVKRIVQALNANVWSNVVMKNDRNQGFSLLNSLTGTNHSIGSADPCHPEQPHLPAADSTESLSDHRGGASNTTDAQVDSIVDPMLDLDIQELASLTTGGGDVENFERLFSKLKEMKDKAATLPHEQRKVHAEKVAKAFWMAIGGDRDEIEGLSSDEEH

Compound: C1=CC2=NC=CN=C2C=C1/C=C/3\C(=O)NC(=O)S3
Experiment: log2 fold change, soluble protein after heating vs DMSO (PISA); higher = thermal stabilisation; K562 lysate, 10 uM; active = over 0.2 and 3.5 SD of the protein, either way, in both replicates (recomputed)
In short: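 Values give the log-two fold change in thermal stability against solvent controls, from duplicates. Crude K562 extract at 1 mg/mL protein, made by dounce homogenisation in PBS pH 7.4 with 1 mM MgCl2, was treated with 10 μM compound for 30 min. After 3 min heating across 48°C-58°C, aliquots were pooled, adjusted to 0.5% NP-40 at 4°C and centrifuged at 21,000xg for 90 min. The supernatant was measured by TMTpro 16plex LC-MS/MS with channel sums equalised.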

log2 fold change, inactive:
AAK1, A0A096LP25 0.098
AAMDC (UniProt Q9H7C9) 0.012
ACIN1 (UniProt E7EQT4) -0.027
ACCS (UniProt Q96QU6) -0.008
A0A0B4J2A0, A0A0B4J2A0 0.015
ABL1 isoform 2 (UniProt P00519) -0.027
ABITRAM (UniProt Q9NX38) 0.023
AACS (UniProt Q86V21) -0.057
ABCF2 isoform 2 (UniProt Q9UG63) 0.01
ACACA isoform 4 (UniProt Q13085) 0.011
ABCB7 isoform 2 (UniProt O75027) -0.051
ACADVL isoform 3 (UniProt P49748) -0.007
ABCC4 (UniProt O15439) -0.103
ABCD3 (UniProt P28288) -0.055
ABRAXAS2 (UniProt Q15018) 0.003
ACBD3 (UniProt Q9H3P7) 0.006
ACIN1 isoform 5 (UniProt Q9UKV3) -0.037
A2M (UniProt P01023) 0.016
AARS (UniProt P49588) -0.011
ABI1 isoform 9 (UniProt Q8IZP0) -0.007
AATF (UniProt Q9NY61) 0.052
AAGAB (UniProt Q6PD74) -0.003

Two entries drawn at random from the list so far:
log2 fold change, inactive:
AAMDC (UniProt Q9H7C9) 0.012
AAGAB (UniProt Q6PD74) -0.003
